# Source: the supplement of paper PMC8728848
# Some of the results follow.
# Assays:
# Experiment in all cases: glycan array binding signal (z-score within array); higher = stronger binding
# Conditions in all cases: glycan notation: IUPAC condensed, linker removed
# [1] = target: GlcNAc(b1-3)Gal(b1-4)GlcNAc(b1-3)Gal(b1-4)GlcNAc(b1-3)Gal(b1-4)GlcNAc(b1-3)Gal(b1-4)GlcNAc(b1-2)[GlcNAc(b1-3)Gal(b1-4)GlcNAc(b1-3)Gal(b1-4)GlcNAc(b1-3)Gal(b1-4)GlcNAc(b1-3)Gal(b1-4)GlcNAc(b1-6)]Man(a1-6)[GlcNAc(b1-3)Gal(b1-4)GlcNAc(b1-3)Gal(b1-4)GlcNAc(b1-3)Gal(b1-4)GlcNAc(b1-3)Gal(b1-4)GlcNAc(b1-2)Man(a1-3)]Man(b1-4)GlcNAc(b1-4)[Fuc(a1-6)]GlcNAc
# Summary of the method: (§1)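 The binding signal is a Z-score computed within each array. Data were drawn from 3228 arrays in the Consortium for Functional Glycomics database, restricted to those with a known protein sequence. Scores were averaged over arrays of the same protein sequence at different concentrations or buffers, and over linkers, and negative values can be taken as non-binding.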
# [2] = target: GlcNAc(b1-3)Gal(b1-4)GlcNAc(b1-3)Gal(b1-4)GlcNAc(b1-3)GalNAc
# Summary of the method: as §1
# [3] = target: GlcNAc(b1-3)Gal(b1-4)GlcNAc(b1-3)GalNAc
# Summary of the method: as §1
# [4] = target: GlcNAc(b1-3)Gal(b1-4)GlcNAc(b1-3)[GlcNAc(b1-3)Gal(b1-4)GlcNAc(b1-3)]GalNAc
# Summary of the method: as §1
# [5] = target: GlcNAc(b1-3)Gal(b1-4)GlcNAc(b1-6)[Gal(b1-3)]GalNAc
# Summary of the method: as §1
# [6] = target: GlcNAc(b1-3)Gal(b1-4)GlcNAc(b1-6)[GlcNAc(b1-3)Gal(b1-3)]GalNAc
# Summary of the method: as §1
# [7] = target: GlcNAc(b1-3)Gal(b1-4)GlcNAc(b1-6)[GlcNAc(b1-3)]Gal(b1-4)GlcNAc
# Summary of the method: as §1
# GlcNAc(b1-3)GalNAc = target: GlcNAc(b1-3)GalNAc
# Summary of the method: as §1
# GlcNAc(b1-3)Man = target: GlcNAc(b1-3)Man
# Summary of the method: as §1
# [8] = target: GlcNAc(b1-3)[GlcNAc(b1-4)][GlcNAc(b1-6)]GlcNAc
# Summary of the method: as §1
# [9] = target: GlcNAc(b1-3)[GlcNAc(b1-6)]Gal(b1-4)GlcNAc
# Summary of the method: as §1
# [10] = target: GlcNAc(b1-3)[GlcNAc(b1-6)]GalNAc
# Summary of the method: as §1
# [11] = target: GlcNAc(b1-4)Gal(b1-4)GlcNAc
# Summary of the method: as §1
# GlcNAc(b1-4)GlcNAc = target: GlcNAc(b1-4)GlcNAc
# Summary of the method: as §1
# [12] = target: GlcNAc(b1-4)GlcNAc(b1-4)GlcNAc
# Summary of the method: as §1
# [13] = target: GlcNAc(b1-4)GlcNAc(b1-4)GlcNAc(b1-4)GlcNAc(b1-4)GlcNAc
# Summary of the method: as §1
# [14] = target: GlcNAc(b1-4)GlcNAc(b1-4)GlcNAc(b1-4)GlcNAc(b1-4)GlcNAc(b1-4)GlcNAc
# Summary of the method: as §1
# [15] = target: GlcNAc(b1-4)[GlcNAc(b1-6)]GalNAc
# Summary of the method: as §1
# [16] = target: GlcNAc(b1-6)Gal(b1-4)GlcNAc
# Summary of the method: as §1
# GlcNAc(b1-6)GalNAc = target: GlcNAc(b1-6)GalNAc
# Summary of the method: as §1
# [17] = target: GlcNAc6S(b1-3)Gal(b1-4)GlcNAc
# Summary of the method: as §1
# Kdn(a2-3)Gal(b1-3)GalNAc = target: Kdn(a2-3)Gal(b1-3)GalNAc
# Summary of the method: as §1
# Kdn(a2-3)Gal(b1-3)GlcNAc = target: Kdn(a2-3)Gal(b1-3)GlcNAc
# Summary of the method: as §1
# Kdn(a2-3)Gal(b1-4)Glc = target: Kdn(a2-3)Gal(b1-4)Glc
# Summary of the method: as §1
# Kdn(a2-3)Gal(b1-4)GlcNAc = target: Kdn(a2-3)Gal(b1-4)GlcNAc
# Summary of the method: as §1
# [18] = target: Kdn(a2-3)Gal(b1-4)[Fuc(a1-3)]GlcNAc
# Summary of the method: as §1
# Kdn(a2-6)Gal(b1-4)GlcNAc = target: Kdn(a2-6)Gal(b1-4)GlcNAc
# Summary of the method: as §1
# [19] = target: Man(a1-2)Man(a1-2)Man(a1-3)Man
# Summary of the method: as §1
# [20] = target: Man(a1-2)Man(a1-2)Man(a1-6)[Man(a1-3)]Man
# Summary of the method: as §1
# Man(a1-2)Man(a1-3)Man = target: Man(a1-2)Man(a1-3)Man
# Summary of the method: as §1
binder,measurement,setting,value
"SHCBP1-GST (Homo sapiens), Q8NEM2 (protein) MADGSLTGGGLEAAAMAPERMGWAVEQELASLEKGLFQDEDSCSDCSYRDKPGSSLQSFMPEGKTFFPEIFQTNQLLFYERFRAYQDYILADCKASEVQEFTAEFLEKVLEPSGWRAVWHTNVFKVLVEITDVDFAALKAVVRLAEPYLCDSQVSTFTMECMKELLDLKEHRLPLQELWVVFDDSGVFDQTALAIEHVRFFYQNIWRSWDEEEEDEYDYFVRCVEPRLRLHYDILEDRVPSGLIVDYHNLLSQCEESYRKFLNLRSSLSNCNSDSEQENISMVEGLKLYSEMEQLKQKLKLIENPLLRYVFGYQKNSNIQAKGVRSSGQKITHVVSSTMMAGLLRSLLTDRLCQEPGEEEREIQFHSDPLSAINACFEGDTVIVCPGHYVVHGTFSIADSIELEGYGLPDDIVIEKRGKGDTFVDCTGADIKISGIKFVQHDAVEGILIVHRGKTTLENCVLQCETTGVTVRTSAEFLMKNSDLYGAKGAGIEIYPGSQCTLSDNGIHHCKEGILIKDFLDEHYDIPKISMVNNIIHNNEGYGVVLVKPTIFSDLQENAEDGTEENKALKIQTSGEPDVAERVDLEELIECATGKMELCARTDPSEQVEGNCEIVNELIAASTQKGQIKKKRLSELGITQADDNLMSQEMFVGIVGNQFKWNGKGSFGTFLF",glycan array binding signal (z-score),[1],-0.149
same,glycan array binding signal (z-score),[2],-0.818
same,glycan array binding signal (z-score),[3],-0.518
same,glycan array binding signal (z-score),[4],-0.256
same,glycan array binding signal (z-score),[5],-0.133
same,glycan array binding signal (z-score),[6],0.071
same,glycan array binding signal (z-score),[7],-0.274
same,glycan array binding signal (z-score),GlcNAc(b1-3)GalNAc,-0.236
same,glycan array binding signal (z-score),GlcNAc(b1-3)Man,-0.054
same,glycan array binding signal (z-score),[8],0.38
same,glycan array binding signal (z-score),[9],-0.533
same,glycan array binding signal (z-score),[10],-0.212
same,glycan array binding signal (z-score),[11],-0.317
same,glycan array binding signal (z-score),GlcNAc(b1-4)GlcNAc,-0.48
same,glycan array binding signal (z-score),[12],-0.309
same,glycan array binding signal (z-score),[13],0.42
same,glycan array binding signal (z-score),[14],0.962
same,glycan array binding signal (z-score),[15],0.29
same,glycan array binding signal (z-score),[16],-0.158
same,glycan array binding signal (z-score),GlcNAc(b1-6)GalNAc,-0.109
same,glycan array binding signal (z-score),[17],0.355
same,glycan array binding signal (z-score),Kdn(a2-3)Gal(b1-3)GalNAc,0.023
same,glycan array binding signal (z-score),Kdn(a2-3)Gal(b1-3)GlcNAc,-0.385
same,glycan array binding signal (z-score),Kdn(a2-3)Gal(b1-4)Glc,-0.831
same,glycan array binding signal (z-score),Kdn(a2-3)Gal(b1-4)GlcNAc,0.202
same,glycan array binding signal (z-score),[18],1.24
same,glycan array binding signal (z-score),Kdn(a2-6)Gal(b1-4)GlcNAc,-0.319
same,glycan array binding signal (z-score),[19],-1.13
same,glycan array binding signal (z-score),[20],-0.665
same,glycan array binding signal (z-score),Man(a1-2)Man(a1-3)Man,0.14

# 2 entries from above, bar-delimited.
binder | measurement | setting | value
SHCBP1-GST (Homo sapiens), Q8NEM2 (protein) MADGSLTGGGLEAAAMAPERMGWAVEQELASLEKGLFQDEDSCSDCSYRDKPGSSLQSFMPEGKTFFPEIFQTNQLLFYERFRAYQDYILADCKASEVQEFTAEFLEKVLEPSGWRAVWHTNVFKVLVEITDVDFAALKAVVRLAEPYLCDSQVSTFTMECMKELLDLKEHRLPLQELWVVFDDSGVFDQTALAIEHVRFFYQNIWRSWDEEEEDEYDYFVRCVEPRLRLHYDILEDRVPSGLIVDYHNLLSQCEESYRKFLNLRSSLSNCNSDSEQENISMVEGLKLYSEMEQLKQKLKLIENPLLRYVFGYQKNSNIQAKGVRSSGQKITHVVSSTMMAGLLRSLLTDRLCQEPGEEEREIQFHSDPLSAINACFEGDTVIVCPGHYVVHGTFSIADSIELEGYGLPDDIVIEKRGKGDTFVDCTGADIKISGIKFVQHDAVEGILIVHRGKTTLENCVLQCETTGVTVRTSAEFLMKNSDLYGAKGAGIEIYPGSQCTLSDNGIHHCKEGILIKDFLDEHYDIPKISMVNNIIHNNEGYGVVLVKPTIFSDLQENAEDGTEENKALKIQTSGEPDVAERVDLEELIECATGKMELCARTDPSEQVEGNCEIVNELIAASTQKGQIKKKRLSELGITQADDNLMSQEMFVGIVGNQFKWNGKGSFGTFLF | glycan array binding signal (z-score) | Kdn(a2-3)Gal(b1-3)GlcNAc | -0.385
same | glycan array binding signal (z-score) | Kdn(a2-3)Gal(b1-4)Glc | -0.831
